# In PubChem BioAssay AID588590 (National Center for Advancing Translational Sciences (NCATS), 2011):
# The chains behind the UniProt entries cited, without tags or fusion partners. Where a name states a change or a piece, a line headed by the entry shows the natural chain unless it says otherwise.
# UniProt Q9UNA4: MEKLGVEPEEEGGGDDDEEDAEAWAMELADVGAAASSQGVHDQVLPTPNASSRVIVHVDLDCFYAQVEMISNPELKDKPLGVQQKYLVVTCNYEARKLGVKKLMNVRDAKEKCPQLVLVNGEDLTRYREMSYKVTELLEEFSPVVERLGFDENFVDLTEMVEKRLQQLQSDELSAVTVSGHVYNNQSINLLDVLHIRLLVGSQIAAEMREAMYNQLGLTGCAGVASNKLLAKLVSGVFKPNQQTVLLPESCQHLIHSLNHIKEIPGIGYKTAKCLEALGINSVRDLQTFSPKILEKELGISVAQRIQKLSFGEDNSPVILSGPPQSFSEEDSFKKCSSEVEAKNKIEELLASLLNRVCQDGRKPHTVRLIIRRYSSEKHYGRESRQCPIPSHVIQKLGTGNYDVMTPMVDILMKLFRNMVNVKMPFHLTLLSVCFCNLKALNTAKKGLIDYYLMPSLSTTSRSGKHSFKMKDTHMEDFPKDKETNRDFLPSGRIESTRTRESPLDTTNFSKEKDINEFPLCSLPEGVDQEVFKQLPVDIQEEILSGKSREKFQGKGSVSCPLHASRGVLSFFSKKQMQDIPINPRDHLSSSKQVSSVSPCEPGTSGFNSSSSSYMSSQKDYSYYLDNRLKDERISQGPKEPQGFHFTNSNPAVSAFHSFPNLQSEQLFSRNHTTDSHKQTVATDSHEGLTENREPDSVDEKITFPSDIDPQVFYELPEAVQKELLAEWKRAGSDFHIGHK
# Screen size: about 390,000 compounds; about 4,000 (1%) were called active. This list was built around the results that the source calls inconclusive (neither active nor inactive); the mix of calls is not that of the screen. The call rests on the fitted dose curve; in most records, active means well fitted inhibition curve with a large enough effect; inconclusive means small, poorly fitted or top-dose-only effect, or another doubt; inactive means no such curve, though single readings can be large or run the other way. A potency beside an inconclusive call is a rough fit, not a confirmed value.
# Target: DNA polymerase iota (Homo sapiens) (UniProt Q9UNA4)
# Test: qHTS for Inhibitors of Polymerase Iota
# Details: Pol iota fluorescent replication assay, 10 min; series mostly up to 115 µM; activity, negative = inhibition: at the top concentration
# Outline: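 Pol iota at 10 nM preincubated 15 min with compounds at room temperature; reaction started with fluorescent substrate, 50 nM final. Fluorescence read kinetically at 0 and 10 min; buffer-only wells as negative control.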
# Potency means the concentration at half of the fitted maximal effect.
SMILES,Potency,"activity, negative = inhibition"
O=C(O)c1cccc(N2C(=O)c3cc([N+](=O)[O-])cc4cc([N+](=O)[O-])cc(c34)C2=O)c1,active: 2.24 µM,–
CN(CC(=O)Nc1ccccc1N1CCCC1)S(=O)(=O)c1ccc(F)cc1,"inconclusive: 89.1 µM [inhibitor, single point]",–
Cc1ccc(OCc2ccc(C(=O)Nc3ccc(C(N)=O)cc3)o2)c([N+](=O)[O-])c1,"inconclusive: 56.2 µM [inhibitor, partial curve, poor fit]",–
Cc1cc2c(cc1C)-c1c(ssc1=Nc1ccc(S(N)(=O)=O)cc1)C(C)(C)N2,"inconclusive: 89.1 µM [inhibitor, single point]",–
CCCCN1C(=O)C(=O)NC[C@@H]1CCCCN,"inconclusive: 70.8 µM [inhibitor, partial curve, poor fit]",–
Cc1cc(C)c2c(C)ccnc2c1,–,inactive: -1.56%
O=C(Nc1ccc(Cl)cc1)c1ccc2oc(=O)n(Cc3ccccc3)c2c1,"inconclusive: 79.4 µM [inhibitor, partial curve, poor fit]",–
NC(=O)c1ncn([C@@H]2O[C@H](CNCc3cc(Cl)ccc3OCc3ccc(Cl)cc3)[C@@H](O)[C@H]2O)n1,"inconclusive: 0.631 µM [inhibitor, full curve, poor fit]",–
O=C(Nc1sc2c(c1C(=O)c1ccc(Cl)cc1)CCCC2)c1cccnc1,"inconclusive: 12.6 µM [inhibitor, partial curve, poor fit]",–
NC(=O)c1ccc(NC(=O)Cn2c(=O)n(-c3ccccc3)c(=O)c3oc4ccccc4c32)cc1,"inconclusive: 50.1 µM [inhibitor, partial curve, poor fit]",–
O=C(Nc1nc(-c2ccccc2)cs1)C1CCCN(S(=O)(=O)c2ccccc2)C1 (stereo not drawn),"inconclusive: 14.1 µM [inhibitor, partial curve]",–
CCN(CC)c1ccc(-c2sc(Nc3ccccc3)n[n+]2-c2ccc(F)cc2)cc1,"inconclusive: 39.8 µM [inhibitor, partial curve, poor fit]",–
COc1ccccc1-n1cc(-c2ccccc2)c2c(=S)nc[nH]c21,–,inactive: 32.6%
Cc1cc(C(=O)CSc2nc(N)cc(=O)[nH]2)c(C)n1Cc1ccco1,"inconclusive: 35.5 µM [inhibitor, full curve]",–
O=C(CN1C(=O)COc2ccc(S(=O)(=O)N3CCOCC3)cc21)NCc1ccc(Cl)cc1,–,inactive: 17%
CSc1nc2ccc(NS(=O)(=O)c3ccc(Cl)s3)cc2s1,"inconclusive: 11.2 µM [inhibitor, full curve, poor fit]",–
Cc1nc2cc(-c3ccc(Cl)cc3)nn2c(C)c1CCC(=O)N1CCN(c2ccccc2)CC1,"inconclusive: 100 µM [inhibitor, single point]",–
CC(C)(C)c1ccc(C(CC(=O)O)NC(=O)C23CC4CC(CC(C4)C2)C3)cc1 (stereo not drawn),"inconclusive: 22.4 µM [inhibitor, partial curve, poor fit]",–
O=C(O)C1CCCC2CN3CCc4c([nH]c5ccccc45)C3C(O)C21 (stereo not drawn),"inconclusive: 28.2 µM [inhibitor, single point]",–
CC1Cc2ccccc2N1CC(=O)NC(=O)NCc1ccco1 (stereo not drawn),"inconclusive: 17.8 µM [inhibitor, partial curve, poor fit]",–
Cc1ccc(NC2=C([N+](=O)[O-])CS(=O)(=O)C2)cc1,"inconclusive: 89.1 µM [inhibitor, full curve, poor fit]",–

SMILES,Potency,"activity, negative = inhibition"
Cc1ccc(-c2onc(C)c2C)cc1S(=O)(=O)N1CCC(C)CC1,–,inactive: -2.74%
CN(C)c1cc2c3ccccc3n(C)c2cc1N,–,inactive: 50.5%
CCOc1ccc(C2C(=O)N(C3CCCCC3)CC(=O)N2Cc2ccccc2OC)cc1OC (stereo not drawn),–,inactive: -2.56%
COc1ccc(/C=C2\CCn3c2nc2cc(C(=O)O)ccc2c3=O)cc1O,"inconclusive: 44.7 µM [inhibitor, partial curve]",–
CCOC(=O)c1ccc(NC(=O)CCCn2nc(C)c3sc4ccccc4c3c2=O)cc1,–,inactive: 10.3%
Nc1cccc2c1C(=O)N(CC(=O)NC13CC4CC(CC(C4)C1)C3)C2=O,–,inactive: -12.2%
CCn1c(CC(=O)Nc2ccc(F)cc2)nnc1SCC(=O)Nc1nnc(C)s1,–,inactive: 82.4%
Cc1ccc([C@@H]2CC=C(C(=O)O)[C@H](c3cccc(Cl)c3)N2S(=O)(=O)c2ccccc2C)cc1,"inconclusive: 56.2 µM [inhibitor, partial curve, poor fit]",–
Cc1ccc(-n2nc3c(N4CCC(C(=O)NCCc5ccco5)CC4)nnc(C)c3c2C)cc1,"inconclusive: 25.1 µM [inhibitor, full curve]",–
COc1ccc2nc(N3C(=O)CC(Cc4ccc(Cl)cc4)C3=O)sc2c1 (stereo not drawn),"inconclusive: 50.1 µM [inhibitor, partial curve]",–
NC(=O)Cn1c(=O)n(CCC(=O)Nc2ccc(F)cc2)c(=O)c2sccc21,–,inactive: 1.86%
Cc1cc(C)c(C)c(S(=O)(=O)NC(C(=O)NCCc2ccco2)C(C)C)c1C (stereo not drawn),"inconclusive: 12.6 µM [inhibitor, partial curve]",–
c1ccc(Sc2ncccn2)nc1,"inconclusive: 12.6 µM [inhibitor, partial curve]",–
Cc1ccc(-c2oc3ncnc(N)c3c2-c2ccc(C)cc2)cc1,"inconclusive: 89.1 µM [inhibitor, partial curve]",–
CCCCCC1C(=O)N2C=C(c3ccccc3)c3ccccc3N2C1=O (stereo not drawn),"inconclusive: 89.1 µM [inhibitor, single point]",–
COc1cc(C(CCN2CCCC2)c2c(OC)cc(OC)c3c2OC(=O)CC3c2ccc(N(C)C)cc2)cc(OC)c1OC (stereo not drawn),–,inactive: 7.94%
S=c1[nH]nc(Cc2sc(-c3ccccc3)nc2-c2ccccc2)o1,–,inactive: -2.34%
COc1cccc(-c2cc(=O)c3cc(NC(=O)c4ccc(N(C)C)cc4)ccc3[nH]2)c1,"inconclusive: 39.8 µM [inhibitor, full curve, poor fit]",–
Cc1ccc(CNC(=O)C2(c3cccs3)CCOCC2)cc1,"inconclusive: 100 µM [inhibitor, single point]",–
O=P(c1ccccc1)(c1ccccc1)C(c1ccco1)N1CCOCC1 (stereo not drawn),"inconclusive: 112 µM [inhibitor, single point]",–
COc1ccc(Cc2nc3ccc(C(=O)NC(C)c4cn(C)nc4C)cc3o2)cc1 (stereo not drawn),–,inactive: 13.7%

# Three entries from above, tab-delimited.
SMILES	Potency	activity, negative = inhibition
Cc1ccc(CNC(=O)C2(c3cccs3)CCOCC2)cc1	inconclusive: 100 µM [inhibitor, single point]	–
O=P(c1ccccc1)(c1ccccc1)C(c1ccco1)N1CCOCC1 (stereo not drawn)	inconclusive: 112 µM [inhibitor, single point]	–
COc1ccc(Cc2nc3ccc(C(=O)NC(C)c4cn(C)nc4C)cc3o2)cc1 (stereo not drawn)	–	inactive: 13.7%

# (list continues)

SMILES,Potency,"activity, negative = inhibition"
CNC(=O)c1ccc2nc(-c3ccco3)c(-c3ccco3)nc2c1,active: 8.91 µM,–
CCN=C1Cn2c(nc3scc(-c4ccccc4)c3c2=O)CN1CC,"inconclusive: 39.8 µM [inhibitor, single point]",–
COc1ccc(CN(Cc2ccc(OC)cc2)S(=O)(=O)c2ccc(-n3cnnn3)c(C)c2)cc1,"inconclusive: 35.5 µM [inhibitor, partial curve, poor fit]",–
CN(C)CC1CCC/C(=C\c2ccc(OC(=O)c3ccc(Cl)cc3)cc2)C1=O (stereo not drawn),"inconclusive: 20 µM [inhibitor, partial curve, poor fit]",–
CCN1C(=O)[C@H]2[C@@H](c3ccc(-c4cccc(Cl)c4)c(OC)c3)N3CCC[C@@]3(C(=O)OC)[C@H]2C1=O,"inconclusive: 35.5 µM [inhibitor, partial curve]",–
O=C(O)COc1ccccc1/C=N/NC(=O)C(O)c1ccccc1 (stereo not drawn),"inconclusive: 89.1 µM [inhibitor, single point]",–
O=C1/C(=C/c2ccc(N3CCCC3)cc2)NC(=S)N1C1CC1,"inconclusive: 14.1 µM [inhibitor, partial curve, poor fit]",–
CCSc1nnc(NC(=O)c2nc(S(=O)(=O)Cc3ccc(F)cc3)ncc2Cl)s1,"inconclusive: 28.2 µM [inhibitor, partial curve, poor fit]",–
COc1cccc(-n2c(C)cc(/C=C3\C(=N)N4N=C(CC(=O)N5CCOCC5)SC4=NC3=O)c2C)c1,"inconclusive: 89.1 µM [inhibitor, partial curve, poor fit]",–
CCc1nn(C(CC)C(=O)NCC(C)c2ccccc2)c(=O)c2cc3occc3n12 (stereo not drawn),–,inactive: 28.8%
O=C(N=Nc1c(O)[nH]c2ccc([N+](=O)[O-])cc12)c1cc(-c2ccccc2Cl)nc2ccccc12,"inconclusive: 2.82 µM [inhibitor, partial curve, poor fit]",–
COC(=O)COc1ccc2c(c1)O/C(=C\c1ccco1)C2=O,"inconclusive: 14.1 µM [inhibitor, full curve, poor fit]",–
CN(C)CCCNc1cc(-c2ccccc2)nc2cc(-c3cccc(F)c3)nn12,–,inactive: -27%
CCc1ccc(NC(=O)C(C)Sc2nc(-c3ccco3)c(C#N)c(=O)[nH]2)cc1 (stereo not drawn),"inconclusive: 14.1 µM [inhibitor, partial curve, poor fit]",–
O=C(O)c1cnn2c(C(F)(F)F)cc(-c3ccco3)nc12,"inconclusive: 15.8 µM [inhibitor, full curve, poor fit]",–
COc1cc(/C=C(\C#N)c2nc3ccccc3[nH]2)ccc1O,"inconclusive: 44.7 µM [inhibitor, partial curve]",–
Cc1nc2oc3c(NCC4CCCO4)ncnc3c2c2c1COC(C)(C)C2 (stereo not drawn),–,inactive: 29.9%
CC(=O)N1CCc2c(sc(NC(=O)CN3C(=O)CCC3=O)c2C(N)=O)C1,"inconclusive: 14.1 µM [inhibitor, full curve, poor fit]",–
O=C(NC1CCCCCC1)C1CCN(S(=O)(=O)c2ccccc2)CC1,"inconclusive: 89.1 µM [inhibitor, partial curve, poor fit]",–
O=C1OCCC1Sc1nc2ccccc2c(=O)n1Cc1ccc(F)cc1 (stereo not drawn),"inconclusive: 35.5 µM [inhibitor, full curve]",–
CC(=O)C(C(C)=O)C1(O)C(=O)c2ccccc2C1=O,active: 3.16 µM,–
